For at least one entry, the source does not settle the construct or the ends of the probe. Weaker means in comparison with the reference protein, sequence or condition of that experiment. Tags and fusion partners may be left off the protein sequences shown.
Target: T1, HY5 (LONG HYPOCOTYL 5) (Solanum lycopersicum) (UniProt Q9SM50)
T1 sequence (looked up): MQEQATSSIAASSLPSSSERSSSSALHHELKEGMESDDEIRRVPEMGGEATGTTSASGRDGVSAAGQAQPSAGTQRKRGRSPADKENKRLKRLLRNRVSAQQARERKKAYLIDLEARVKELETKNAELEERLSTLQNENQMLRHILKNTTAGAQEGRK
Assay: EMSA
Conditions: 250 uM GSNO; LightShift Chemiluminescent EMSA Kit, 20 min at room temperature, 6% native polyacrylamide gel; salt and pH not stated; recombinant protein; residues 1-158; protein details: His (pET-32a fusion); label: biotin 3' end

Sequence | binding result
CAAAATGCAACACGTGATGTATGAAT (double strand) [PORC-wt probe] | binds more weakly
CTGTGATTTACACGTGTCCTCTTTAT (double strand) [PSY2-wt probe] | binds more weakly

Source: publication PMC9181159, “High Nitric Oxide Concentration Inhibits Photosynthetic Pigment Biosynthesis by Promoting the Degradation of Transcription Factor HY5 in Tomato”
